In the supplement of paper PMC7125110:
± gives the standard error. Many of these values have a large error.

B1: glmS ribozyme (parent)
chain: AUAAAAGCGCCAGAACUACAGAAAUGUAGUUGACGAGGAGGAGGUUUAUCGAAUUUUCGGCGGAUGCCUCCAAA

Variants of: B1
Test: KM; higher = weaker cofactor use; RNA array
Conditions: with glucosamine-6-phosphate
Summary of the method: (§1)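 Glucosamine-6-phosphate (40 μM to 10 mM) in HEPES/KCl/Mg(OAc)2 buffer was flowed over sequenced MiSeq chips, and tiles were imaged over ~14 h. Barcoded ribozyme variants there had been transcribed in situ by E. coli RNA polymerase and were tracked through a hybridised Cy3 probe at 37 °C. One- or two-exponential decay fits to per-tile medians, normalised to baseline and to non-cleaving reference variants, gave kobs. kcat and KM came from weighted Michaelis–Menten fits across concentrations.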

Q: Which KM does the source give for U30C C70G here?
A: 28 ± 24 µM

Q: With G40U U46C as the variant, how does the KM read?
A: 2420 ± 530 µM

Q: For U47A G59U, which KM is on record?
A: 16400 ± 660 µM

Q: With G38C G66U as the variant, how does the KM read?
A: 27.3 ± 24 µM

Q: For A52U C67A, which KM is on record?
A: 1480 ± 240 µM

Q: For U46A C71U, which KM is on record?
A: 2020 ± 580 µM

Q: With G63U A64C G66C as the variant, how does the KM read?
A: 29 ± 23 µM

Q: How did the KM turn out when U30G U45C was run?
A: 1300 ± 900 µM

Q: Which KM does the source give for U47C A53U here?
A: 1150 ± 280 µM

Q: With U57C U65A as the variant, how does the KM read?
A: 1410 ± 140 µM

Q: Which KM does the source give for U47C C71G here?
A: 908 ± 460 µM

Q: U54C G59U was tested. Which KM did it give?
A: 8760 ± 8000 µM

Q: For U47A C58G, which KM is on record?
A: 1740 ± 440 µM

Q: For U65C C67G, which KM is on record?
A: 193 ± 110 µM

Q: For C58G G66A, which KM is on record?
A: 658 ± 540 µM

Q: Which KM does the source give for A33C C58U here?
A: 38.4 ± 24 µM

Q: With G59U C71U as the variant, how does the KM read?
A: 1450 ± 860 µM

Q: Which KM does the source give for G40C A52U here?
A: 857 ± 810 µM

Q: U55A U65C C67A was tested. Which KM did it give?
A: 242 ± 200 µM

Q: How did the KM turn out when A39U was run?
A: 3040 ± 720 µM

Q: How did the KM turn out when U56C U65G was run?
A: 2740 ± 1400 µM

Q: With C67A C71A as the variant, how does the KM read?
A: 1150 ± 700 µM

Q: For G59U G63A, which KM is on record?
A: 315 ± 270 µM

Q: G32A G59A was tested. Which KM did it give?
A: 1330 ± 1200 µM

Q: G40A U65A was tested. Which KM did it give?
A: 2690 ± 980 µM

Q: For G40C G66A, which KM is on record?
A: 1760 ± 1200 µM

Q: G44U U56C was tested. Which KM did it give?
A: 4890 ± 1500 µM

Q: For U46C C58A, which KM is on record?
A: 14200 ± 4400 µM

Q: Which KM does the source give for G51A U54A here?
A: 123 ± 100 µM

Q: How did the KM turn out when A48G A52G was run?
A: 919 ± 460 µM

Q: For U56C C58G, which KM is on record?
A: 3700 ± 3700 µM

Q: How did the KM turn out when U31A G32C was run?
A: 1950 ± 290 µM

Q: How did the KM turn out when U45G A64G was run?
A: 2790 ± 990 µM

Q: G37U A64G was tested. Which KM did it give?
A: 801 ± 760 µM

Q: G59A A64G was tested. Which KM did it give?
A: 1560 ± 1000 µM

Q: Which KM does the source give for U45A U55C here?
A: 733 ± 530 µM

Q: For U56G A64G, which KM is on record?
A: 2680 ± 1000 µM

Q: Which KM does the source give for A39G U57C here?
A: 7160 ± 3700 µM

Q: Which KM does the source give for A39U A64G here?
A: 3390 ± 1700 µM

Q: For A48G A53U, which KM is on record?
A: 1680 ± 1100 µM

Q: For A48G A53G, which KM is on record?
A: 2670 ± 1600 µM

Q: A36G C70U was tested. Which KM did it give?
A: 482 ± 360 µM

Q: Which KM does the source give for U45A U54G here?
A: 477 ± 290 µM

Q: How did the KM turn out when U31A C71G was run?
A: 256 ± 210 µM

Q: How did the KM turn out when U47G C67G was run?
A: 998 ± 620 µM

Q: For G40A G59U, which KM is on record?
A: 17700 ± 4800 µM

Q: For A39G U45A, which KM is on record?
A: 581 ± 220 µM

Q: With U54G A64U as the variant, how does the KM read?
A: 1560 ± 780 µM

Q: For U31G G41U, which KM is on record?
A: 1350 ± 760 µM

Q: U31G G41C was tested. Which KM did it give?
A: 1570 ± 1200 µM

Q: Which KM does the source give for U31C A33U here?
A: 1150 ± 800 µM

Q: With G32U G37A as the variant, how does the KM read?
A: 3700 ± 3100 µM

Q: Which KM does the source give for C61G C71U here?
A: 27.5 ± 16 µM

Q: With A52C U54G G63A as the variant, how does the KM read?
A: 135 ± 120 µM

Q: U46A U69C was tested. Which KM did it give?
A: 1590 ± 770 µM

Q: With A48U U55A U56C as the variant, how does the KM read?
A: 543 ± 380 µM

Q: Which KM does the source give for G40C C70U C71G here?
A: 678 ± 490 µM

Q: A64U C67A was tested. Which KM did it give?
A: 1000 ± 750 µM

Q: With A33C U56A as the variant, how does the KM read?
A: 10000 ± 6600 µM

Q: G43A was tested. Which KM did it give?
A: 1560 ± 420 µM

Q: With G32C A42G as the variant, how does the KM read?
A: 10600 ± 3200 µM

Q: U31C G32A C58A U65G was tested. Which KM did it give?
A: 2320 ± 190 µM

Q: How did the KM turn out when A48G C68U was run?
A: 28600 ± 11000 µM

Variants of: B1
Test: self-cleavage kobs at 40 uM GlcN6P; higher = faster cleavage; RNA array
Conditions: with glucosamine-6-phosphate
Summary of the method: as §1

Q: With U30C C70G as the variant, how does the “self-cleavage kobs at 40 uM GlcN6P” value read?
A: 2.69e-05 ± 1.4e-05 s⁻¹

Q: With C8A U30C G38A U47A U69A as the variant, how does the “self-cleavage kobs at 40 uM GlcN6P” value read?
A: 7.01e-05 ± 3.7e-05 s⁻¹

Q: C11G C70G was tested. Which “self-cleavage kobs at 40 uM GlcN6P” value did it give?
A: 1.74e-05 ± 1.5e-05 s⁻¹

Q: Which “self-cleavage kobs at 40 uM GlcN6P” value does the source give for G7U G13C C70G here?
A: 3.57e-05 ± 2.8e-05 s⁻¹

Q: With C8A G63U U69A as the variant, how does the “self-cleavage kobs at 40 uM GlcN6P” value read?
A: 3.53e-05 ± 3e-05 s⁻¹

Q: Which “self-cleavage kobs at 40 uM GlcN6P” value does the source give for A6G A14G here?
A: 1.35e-05 ± 1.2e-05 s⁻¹

Q: Which “self-cleavage kobs at 40 uM GlcN6P” value does the source give for U31G G41U here?
A: 2.78e-05 ± 2.1e-05 s⁻¹

Q: For G9C C50G, which “self-cleavage kobs at 40 uM GlcN6P” value is on record?
A: 0.000491 ± 0.00026 s⁻¹

Q: C8U C16U G37U U54G C68A was tested. Which “self-cleavage kobs at 40 uM GlcN6P” value did it give?
A: 6.82e-05 ± 3.5e-05 s⁻¹

Q: G9A A33C C50G A52G G59U C71A was tested. Which “self-cleavage kobs at 40 uM GlcN6P” value did it give?
A: 4.2e-05 ± 3.3e-05 s⁻¹

Variants of: B1
Test: self-cleavage kobs at 10000 uM GlcN6P; higher = faster cleavage; RNA array
Conditions: with glucosamine-6-phosphate
Summary of the method: as §1

Q: Which “self-cleavage kobs at 10000 uM GlcN6P” value does the source give for U47A G59U here?
A: 2.23e-05 ± 1.5e-05 s⁻¹

Q: Which “self-cleavage kobs at 10000 uM GlcN6P” value does the source give for U57C U65A here?
A: 1.68e-05 ± 1.3e-05 s⁻¹

Q: For G32A G59A, which “self-cleavage kobs at 10000 uM GlcN6P” value is on record?
A: 1.55e-05 ± 1.2e-05 s⁻¹

Q: For U56C C58G, which “self-cleavage kobs at 10000 uM GlcN6P” value is on record?
A: 2.02e-05 ± 1.3e-05 s⁻¹

Q: For G9C C50G, which “self-cleavage kobs at 10000 uM GlcN6P” value is on record?
A: 0.00164 ± 0.0015 s⁻¹

Variants of: B1
Test: self-cleavage kobs at 160 uM GlcN6P; higher = faster cleavage; RNA array
Conditions: with glucosamine-6-phosphate
Summary of the method: as §1

Q: U47C C71G was tested. Which “self-cleavage kobs at 160 uM GlcN6P” value did it give?
A: 2.38e-05 ± 1.8e-05 s⁻¹

Q: With U56C U65G as the variant, how does the “self-cleavage kobs at 160 uM GlcN6P” value read?
A: 4.26e-05 ± 2.6e-05 s⁻¹

Q: With C67A C71A as the variant, how does the “self-cleavage kobs at 160 uM GlcN6P” value read?
A: 2.92e-05 ± 2e-05 s⁻¹

Q: How did the “self-cleavage kobs at 160 uM GlcN6P” value turn out when C11G C70G was run?
A: 0.000175 ± 0.00011 s⁻¹

Q: For A39G U57C, which “self-cleavage kobs at 160 uM GlcN6P” value is on record?
A: 2.9e-05 ± 1.9e-05 s⁻¹

Q: For U54G A64U, which “self-cleavage kobs at 160 uM GlcN6P” value is on record?
A: < 1e-05 s⁻¹

Variants of: B1
Test: self-cleavage kobs at 2500 uM GlcN6P; higher = faster cleavage; RNA array
Conditions: with glucosamine-6-phosphate
Summary of the method: as §1

Q: With U65C C67G as the variant, how does the “self-cleavage kobs at 2500 uM GlcN6P” value read?
A: 4.33e-05 ± 3.4e-05 s⁻¹

Q: U31C A33U was tested. Which “self-cleavage kobs at 2500 uM GlcN6P” value did it give?
A: 1.67e-05 ± 1.2e-05 s⁻¹

Q: How did the “self-cleavage kobs at 2500 uM GlcN6P” value turn out when G9C C50G was run?
A: 2.24e-05 ± 1.8e-05 s⁻¹

Q: Which “self-cleavage kobs at 2500 uM GlcN6P” value does the source give for G32U G37A here?
A: 1.42e-05 ± 8.5e-06 s⁻¹

Q: A64U C67A was tested. Which “self-cleavage kobs at 2500 uM GlcN6P” value did it give?
A: 1.45e-05 ± 1.2e-05 s⁻¹

Q: With A33C U56A as the variant, how does the “self-cleavage kobs at 2500 uM GlcN6P” value read?
A: 2.95e-05 ± 1.6e-05 s⁻¹

Q: With U31C G32A C58A U65G as the variant, how does the “self-cleavage kobs at 2500 uM GlcN6P” value read?
A: 2.4e-05 ± 1.9e-05 s⁻¹

Variants of: B1
Test: self-cleavage kobs at 640 uM GlcN6P; higher = faster cleavage; RNA array
Conditions: with glucosamine-6-phosphate
Summary of the method: as §1

Q: Which “self-cleavage kobs at 640 uM GlcN6P” value does the source give for G59U C71U here?
A: 2.66e-05 ± 1.7e-05 s⁻¹

Q: With A48G A53G as the variant, how does the “self-cleavage kobs at 640 uM GlcN6P” value read?
A: 1.39e-05 ± 9.7e-06 s⁻¹

Q: U31G G41C was tested. Which “self-cleavage kobs at 640 uM GlcN6P” value did it give?
A: 3.39e-05 ± 1.9e-05 s⁻¹

Q: How did the “self-cleavage kobs at 640 uM GlcN6P” value turn out when G32U G37A was run?
A: 1.77e-05 ± 1.3e-05 s⁻¹

Q: How did the “self-cleavage kobs at 640 uM GlcN6P” value turn out when G32C A42G was run?
A: 2.39e-05 ± 2.1e-05 s⁻¹
